From patent US20210180023A1, “CARDIAC REPAIR BY REPROGRAMMING OF ADULT CARDIAC FIBROBLASTS INTO CARDIOMYOCYTES” (The Board of Regents of the University of Texas System, priority 2017, published 2021)
Results are given in words; binding and its absence hold for the method and conditions named. Binding seen in cells or lysates may run through a third protein. Some entries that bind do so weakly or less than the wild type. Tags and fused reporters may be left off the sequences shown.

Protein sequences, listed by entry. Tags and fused reporters are not part of them. Lines headed by an entry give the natural chain unless they say otherwise; changes in a name come on top.
UniProt P43694: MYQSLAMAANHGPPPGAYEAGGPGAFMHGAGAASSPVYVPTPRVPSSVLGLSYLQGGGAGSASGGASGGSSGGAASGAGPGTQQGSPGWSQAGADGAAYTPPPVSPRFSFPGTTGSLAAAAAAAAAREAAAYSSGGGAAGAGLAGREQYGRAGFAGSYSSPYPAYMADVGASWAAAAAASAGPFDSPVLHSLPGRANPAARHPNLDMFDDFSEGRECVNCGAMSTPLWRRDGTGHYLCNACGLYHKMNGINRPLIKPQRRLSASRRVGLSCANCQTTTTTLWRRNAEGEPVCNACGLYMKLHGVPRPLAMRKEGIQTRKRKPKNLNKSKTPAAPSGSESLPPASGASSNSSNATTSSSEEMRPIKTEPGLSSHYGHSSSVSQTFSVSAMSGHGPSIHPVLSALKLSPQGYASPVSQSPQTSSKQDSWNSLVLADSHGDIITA

Tests used:
[1] = biological target: myc-epitope tag fusion GATA4 (human) (UniProt P43694); assay: co-immunoprecipitation from transfected HEK293 cells (refers to FIG. 6A)
[2] = biological target: myc-epitope tag fusion GATA4 (human) (UniProt P43694); assay: co-immunoprecipitation from transfected HEK293 cells (legend of FIG. 6A)
[3] = biological target: myc-epitope tag fusion GATA4 (human) (UniProt P43694); assay: co-immunoprecipitation from transfected HEK293 cells (anti-FLAG IP, anti-Myc blot)

- binding [1]: binds
- binding [2]: binds
- binding [3]: binds
B1: Flag-epitope tag ZNF281 fusion protein (protein, not shown: small tags and cut ends)
chain: MKIGSGFLSGGGGTGSSGGSGSGGGGSGGGGGGGSSGRRAEMEPTFPQGMVMFNHRLPPVTSFTRPAGSAAPPPQCVLSSSTSAAPAAEPPPPPAPDMTFKKEPAASAAAFPSQRTSWGFLQSLVSIKQEKPADPEEQQSHHHHHHHHYGGLFAGAEERSPGLGGGEGGSHGVIQDLSILHQHVQQQPAQHHRDVLLSSSSRTDDHHGTEEPKQDTNVKKAKRPKPESQGIKAKRKPSASSKPSLVGDGEGAILSPSQKPHICDHCSAAFRSSYHLRRHVLIHTGERPFQCSQCSMGFIQKYLLQRHEKIHSREKPFGCDQCSMKFIQKYHMERHKRTHSGEKPYKCDTCQQYFSRTDRLLKHRRTCGEVIVKGATSAEPGSSNHTNMGNLAVLSQGNTSSSRRKTKSKSIAIENKEQKTGKTNESQISNNINMQSYSVEMPTVSSSGGIIGTGIDELQKRVPKLIFKKGSRKNTDKNYLNFVSPLPDIVGQKSLSGKPSGSLGIVSNNSVETIGLLQSTSGKQGQISSNYDDAMQFSKKRRYLPTASSNSAFSINVGHMVSQQSVIQSAGVSVLDNEAPLSLIDSSALNAEIKSCHDKSGIPDEVLQSILDQYSNKSESQKEDPFNIAEPRVDLHTSGEHSELVQEENLSPGTQTPSNDKASMLQEYSKYLQQAFEKSTNASFTLGHGFQFVSLSSPLHNHTLFPEKQIYTTSPLECGFGQSVTSVLPSSLPKPPFGMLFGSQPGLYLSALDATHQQLTPSQELDDLIDSQKNLETSSAFQSSSQKLTSQKEQKNLESSTGFQIPSQELASQIDPQKDIEPRTTYQIENFAQAFGSQFKSGSRVPMTFITNSNGEVDHRVRTSVSDFSGYTNMMSDVSEPCSTRVKTPTSQSYR
